From patent publication US20190224278A1, “PRODUCING METHOD OF ANTIMICROBIAL PEPTIDE WITH ENHANCED ADHESION AND USES THEREOF” (Intelligent Synthetic Biology Center, priority 2018, published 2019)
At least one peptide structure holds a part that was inferred or is arguable (an end, a ring closure or a residue). Non-standard residues stand in square brackets, D forms with d. Residues, ends and D or L forms follow the SMILES beside them. Dopa = N[C@@H](Cc1ccc(O)c(O)c1)C(=O)O

Columns and labels:
E. coli [1] = experiment: Antimicrobial activity of the coated surface (modified ISO 22196 / colony counting assay); type: cell-based, Escherichia coli
Description: In order to confirm the antimicrobial activity in the state where the antimicrobial peptides are coated, the experiment was carried out by an ISO 22196 method in which some steps were changed. Based on the results of Experimental Example 2-1 above, the experiment on the antimicrobial activity was carried out by only using the NKCs to which 3, 5, and 7 DOPA moieties were conjugated (i.e., NKC-L-O3, NKC-L-O5, NKC-L-O7, respectively). Each of NKC-L-O3, NKC-L-O5, and NKC-L-O7 was coated on a polystyrene surface at different concentrations of 25 μM, 50 μM, and 100 μM, and then E. coli in logarithmic phase (10^6 cell/mL) was cultured on the coated surface for 24 hours. After the culture, the culture medium was diluted to a certain concentration and smeared on a plate, and the CFU values were confirmed after 16 hours. The E. coli death level, calculated by comparing the above CFU values with CFU values of the uncoated surface, is represented using the following equation.
Antimicrobial Activity=(1−CFU of Surface of Sample/CFU of Control)×100
In order to measure the antimicrobial activity of NKC-L-O5 (100 μM) according to coating time, a colony counting assay was carried out. NKC-L-O5 (100 μM) was coated on a polystyrene 24-well plate for 0 (untreated group), 1, 3, 6, and 12 hours, and then E. coli in algebraic logarithmic phase (10^6 cell/mL) was cultured on the coated surface for 24 hours. After the culture, an SCDLP medium (300 μL) was added thereto, and then E. coli cells were recovered. Thereafter, these were diluted to a certain concentration and smeared on an LB agar plate. The plate was cultured at 37° C. for 16 hours, and then the colonies were counted.

E. coli [2] = experiment: Persistence of antimicrobial activity of the coated peptide on storage; type: cell-based, Escherichia coli; settings: up to 84 days

In the case of `CC[C@H](C)[C@H](NC(=O)CNC(=O)[C@H](CCCCN)NC(=O)[C@H](CCCCN)NC(=O)[C@H](CCC(N)=O)NC(=O)[C@H](CC(C)C)NC(=O)[C@H](CCCCN)NC(=O)[C@H](CC(C)C)NC(=O)[C@H](CC(C)C)NC(=O)[C@H](CCCCN)NC(=O)[C@H](CCCCN)NC(=O)[C@H](CC(C)C)NC(=O)[C@H](CC(C)C)NC(=O)[C@H](CCCCN)NC(=O)[C@H](CCSC)NC(=O)[C@H](C)NC(=O)[C@H](CCCCN)NC(=O)[C@@H]1CCCN1C(=O)[C@H](C)N)C(=O)NCC(=O)NCC(=O)NCC(=O)NCC(=O)N[C@@H](CO)C(=O)NCC(=O)NCC(=O)NCC(=O)NCC(=O)N[C@@H](CO)C(=O)N[C@@H](Cc1ccc(O)c(O)c1)C(=O)N[C@@H](Cc1ccc(O)c(O)c1)C(=O)N[C@@H](Cc1ccc(O)c(O)c1)C(=O)N[C@@H](Cc1ccc(O)c(O)c1)C(=O)N[C@@H](Cc1ccc(O)c(O)c1)C(=O)O` [NKC-(G4S)2-DOPA5] (H-APKAMKLLKKLLKLQKKGIGGGGSGGGGS[Dopa][Dopa][Dopa][Dopa][Dopa]-OH), the “antimicrobial activity according to coating time” value (E. coli [1]; 100 μM, polystyrene, coating 1, 3, 6, 12 hours) is reported as “coating time-dependent antimicrobial activity up to 6 hours”, the antibacterial activity (E. coli [1]; coated at 100 μM for 6 hours) is reported as greater than 99.999% and the antibacterial activity (E. coli [1]; coated at 200 μM for 10 minutes) is reported as greater than 99.999%. For the same compound, the “antimicrobial activity in coated state, dependence” value (E. coli [1]; coated on polystyrene at 25, 50 and 100 μM, E. coli cultured 24 hours) was “antimicrobial activity dependent on the number of DOPA moieties and the concentration of the NKC”, the “killing on coated surfaces” value (E. coli [1]; polystyrene, titanium, PDMS coated at 200 μM for 10 minutes, cultured 2 hours) was “all of them were killed” and the “antimicrobial activity after storage” value (E. coli [2]; coated 24-well plate stored at 4° C.) was “a high antimicrobial activity was maintained up to 84 days”. The “antimicrobial activity after storage” value (E. coli [2]; coated 24-well plate stored at 25° C.) was 99.2%.
